# PubChem BioAssay AID1671195 – Yale University – 2021
# Screen: 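Genes whose knockdown alters LDL uptake in liver cancer cells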 (primary screen)
# Cell system: human Huh7 hepatoma cells
# Reagent: siRNA pool against human genes, 18 nM
# Timing: about 2 to 2.5 days of knockdown, then 8 h LDL uptake
# Challenge: DiI-labelled LDL at 30 µg/ml for 8 h, in lipoprotein-deficient serum medium
# Detection: 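Per-cell DiI-LDL intensity by automated imaging; well means scaled to the plate median and given as a robust z-score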
# Direction: robust z-score: higher = more LDL uptake after knockdown
# Active means: 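a gene counts as active if at least two replicate z-scores exceed ±2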
# The deposit covers about 22,000 reagents; this is a random part of them. In the full data, about 1,510 (6.9%) were called active. 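Active includes knockdowns raising or lowering LDL uptake; positive z-scores mean more uptake, negative mean less.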 The numbers tell different reagents against one gene apart. Reagent sequences are not shown.
"robust z-score, replicate 1","robust z-score, replicate 2","robust z-score, replicate 3",call,gene knocked down,reagent
2.3,2.59,2.11,active,LINC00667,1
1.02,1.06,0.688,inactive,LINC00667,2
-3.09,-3.13,-2.9,active,SSBP3-AS1,1
-0.414,-0.492,-1.1,inactive,LDB3,1
-1.25,-1.82,-1.75,inactive,CYP4F22,1
2.32,2.3,1.52,active,PSMD4,1
2.2,1.54,1.77,inactive,LOC440871 (retired record),1
2.86,2.34,2.35,active,IFI30,1
-1.27,-0.848,-0.88,inactive,LCOR,1
-1.68,-1.49,-0.847,inactive,LCOR,2
-2.17,-2.18,-2.1,active,LOXL2,1
-0.967,-1.48,-0.393,inactive,UBR5,1
1.3,2.01,0.843,inactive,SRR,1
1.26,0.917,1.82,inactive,GAPDHP22,1
-0.481,-0.733,-0.549,inactive,BEND6,1
-0.0403,-0.462,-0.39,inactive,OGFRP1,1
-0.896,-0.587,-0.497,inactive,DYNLT2B,1
0.529,0.434,0.18,inactive,LOC389055 (retired record),1
0.0112,-0.671,0.751,inactive,KRTAP2-2,1
0.991,1.84,2.42,inactive,LOC392467 (retired record),1
-0.175,-0.154,0.567,inactive,LRPPRC,1
-1.53,-1.08,-0.497,inactive,EID2B,1
-1.54,-0.282,-1.39,inactive,DSE,1
1.84,1.27,1.42,inactive,OR9Q1,1
1.05,0.391,1.21,inactive,ITGB8,1
-0.731,-1.04,-0.0202,inactive,XIRP2,1
-0.51,-0.615,0.0388,inactive,ALOX15,1
0.593,1.82,0.861,inactive,LOXL3,1
-1.4,-0.977,-1.19,inactive,ENDOU,1
0.235,-0.566,-0.0226,inactive,ENOX1,1
-1.13,-1.47,-1.35,inactive,ZBTB6,1
-0.556,-0.876,-1.09,inactive,ADPRS,1
1.16,2.31,2.91,active,RACK1,1
-1.27,-1.6,-1.92,inactive,ZNF282,1
0.762,1.63,1.13,inactive,LY6G5B,1
-1.18,-1.55,-1.63,inactive,NT5C3B,1
1.48,1.6,1.51,inactive,SMYD1,1
0.217,0.072,0.626,inactive,KIF11,1
0.162,0.445,0.721,inactive,GRIN3B,1
-0.0833,1.51,1.04,inactive,COA4,1
1.41,0.966,1.95,inactive,SMAD2,1
0.366,0.731,1.34,inactive,H2BC9,1
-1.71,-0.603,-1.1,inactive,RPS20,1
0.395,1.13,0.537,inactive,OR56A3,1
-1.44,-1.06,-0.999,inactive,LOC158796 (retired record),1
1.68,-0.25,1.66,inactive,OR10H2,1
1.48,0.449,-0.033,inactive,MEPE,1
0.19,0.65,0.68,inactive,GGACT,1
-1.74,-1.71,-0.553,inactive,NEUROD4,1
1.21,1.29,1.36,inactive,TNFRSF10B,1
-0.689,-0.693,-0.694,inactive,SLC5A1,1
4.42,3.47,4.05,active,ADAM29,1
0.723,1.23,0.921,inactive,MYL12A,1
-0.162,-0.496,-1.16,inactive,TGFB3,1
-0.611,-0.726,-0.158,inactive,COX7B2,1
0.152,-0.0506,-0.0962,inactive,LOC389095 (retired record),1
0.637,0.2,0.613,inactive,LOC441111 (retired record),1
-0.0375,-0.617,0.437,inactive,RBM48,1
-1.26,-0.431,-0.306,inactive,SNX8,1
-0.0388,0.728,0.414,inactive,TBC1D24,1
-0.954,-1.54,-1.6,inactive,MYH14,1
5.46,6.44,5.96,active,TBATA,1
-0.00452,1.17,0.489,inactive,APBB3,1
0.721,-0.00095,-0.0499,inactive,GRIA1,1
-0.631,-0.119,0.35,inactive,MAGEE1,1
0.413,0.378,-1.4,inactive,GRHL1,1
-1.38,-1.48,-1.64,inactive,CLDN22,1
1.12,1.34,-2.3,inactive,PI15,1

5 neighbouring reagents already listed, for reference:
"robust z-score, replicate 1","robust z-score, replicate 2","robust z-score, replicate 3",call,gene knocked down,reagent
-0.162,-0.496,-1.16,inactive,TGFB3,1
-0.611,-0.726,-0.158,inactive,COX7B2,1
0.152,-0.0506,-0.0962,inactive,LOC389095 (retired record),1
0.637,0.2,0.613,inactive,LOC441111 (retired record),1
-0.0375,-0.617,0.437,inactive,RBM48,1
